# According to PubChem BioAssay AID445 (National Center for Advancing Translational Sciences (NCATS), 2006):
# The other results are listed elsewhere or left out. Shown are side measurements of this screen, not its main read-out; they come without a call. The list favours compounds with an active or inconclusive main result. Potencies come from curve fits of mixed quality, noted in brackets.
# Test: IkB Signaling
# Conditions: ABC-DLBCL IkBa-CBG/CBR dual luciferase ratio (green luciferase fused to IkBa over red control in OCI-Ly3 lymphoma cells), 4 h
# Procedure, shortened: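 Luminescence ratio of IκBα-fused green versus native red beetle luciferase in OCI-Ly3 cells, 4 h post-doxycycline with compound; red signal alone, scaled from basal (0%) to zero light (-100%), flagged nonspecific or cytotoxic effects.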
# [1] = measured here: control luc red channel unless noted
# [2] = measured here: IkB-luc green channel
# [3] = measured here: control luc red channel
structure (smiles),measurement,setting,value
CC(=O)C1=C(OC(=O)C(C)C)c2ccccc2S(=O)(=O)N1Cc1ccccc1,AC50,[1],"39.8 µM [falling, single point]"
Cc1c(NC(=O)c2ccc3c(c2)OCO3)cccc1-c1nc2ccccc2o1,AC50,[2],"2 µM [falling, full curve, poor fit]"
same,AC50,[3],"2 µM [falling, partial curve]"
O=C(COC(=O)c1cnccn1)Nc1ccc(Cl)cc1,AC50,[1],"10 µM [falling, partial curve]"
O=C1c2ccccc2C(=O)N1CCc1nc2ccccc2c(=O)n1Cc1ccco1,AC50,[1],"12.6 µM [falling, partial curve]"
CCN(C(=O)CSc1nc2ccccc2n1CC(=O)Nc1cccc(C#N)c1)c1ccccc1,AC50,[1],"25.1 µM [falling, single point]"
Cc1cc(NC(=O)CN2C(=O)C(C)(C)c3ccccc32)ccc1Br,AC50,[1],"25.1 µM [falling, partial curve, poor fit]"
COc1ccc(C(CC(=O)Nc2ccc(F)c(Cl)c2)N2Cc3ccccc3C2=O)cc1OC (configuration not stated),AC50,[1],"31.6 µM [falling, single point]"
Cc1ccc(S(=O)(=O)Cc2ccc(C(=O)N3CCN(c4cccc(C)c4C)CC3)o2)cc1,AC50,[1],"39.8 µM [falling, single point]"
Cc1ccc(-c2csc3nnc(SCC(=O)Nc4cccc(C)n4)n23)cc1,AC50,[1],"15.8 µM [falling, partial curve]"
COc1ccc(C(=O)OCc2cc(=O)n3nc(-c4cccs4)sc3n2)cc1,AC50,[1],"15.8 µM [falling, partial curve]"
CCC(Cn1nnc2ccccc2c1=O)NC(=O)Nc1cccc(C)c1C (configuration not stated),AC50,[1],"39.8 µM [falling, single point]"
CCOc1ccc2oc(-c3ccccc3)c(C(=O)O)c2c1,AC50,[1],"25.1 µM [falling, single point]"
O=[N+]([O-])c1cc(-c2nc(-c3ccccc3)no2)ccc1N1CCCCC1,AC50,[1],"3.98 µM [rising, partial curve]"
Cc1ccc(NC(=O)C2CCCN(c3nnc(C)c4c(C)n(-c5ccccc5)nc34)C2)c(Cl)c1 (configuration not stated),AC50,[1],"31.6 µM [falling, single point]"
CCC(=O)N1CCc2cc(Br)cc(S(=O)(=O)CCC(=O)N3CCN(c4cccc(C(F)(F)F)c4)CC3)c21,AC50,[1],"3.16 µM [falling, full curve]"
c1ccc(C(c2nnnn2Cc2ccco2)N2CCN(C3CCCC3)CC2)cc1 (configuration not stated),AC50,[1],"15.8 µM [falling, partial curve]"
CC(C)Cn1c(N)c(S(=O)(=O)c2cccs2)c2nc3ccccc3nc21,AC50,[1],"12.6 µM [falling, partial curve]"
Cc1nn(Cc2ccc(F)cc2)c(C)c1NC(=O)c1noc2c1CCCCC2,AC50,[1],"15.8 µM [falling, partial curve]"
Cc1ccccc1NC(=O)Cn1c(SCC(=O)Nc2ccc(F)cc2)nc2ccccc21,AC50,[1],"6.31 µM [falling, partial curve]"
Cc1ccc(CNC(=O)Cc2c(C)c3cc4c(C)coc4cc3oc2=O)cc1,AC50,[1],"3.16 µM [falling, full curve, poor fit]"
CCCOc1ccccc1C1CC(=O)Nc2cc3c(cc21)OCO3 (configuration not stated),AC50,[1],"10 µM [falling, partial curve]"
CCn1c(SCC(=O)Nc2ccc(OCc3ccccc3)cc2)nnc1-c1ccco1,AC50,[1],"12.6 µM [falling, partial curve]"
CCOC(=O)c1ccc(N2CCN(c3cccc(OC)c3)CC2)c(NC(=O)Nc2ccc(OCC)cc2)c1,AC50,[1],"25.1 µM [rising, partial curve]"
Cc1cc(Nc2ccc(C)c(Cl)c2)n2nc(Cc3ccccc3)nc2n1,AC50,[1],"12.6 µM [falling, partial curve]"
Cc1cc(C)n2cc(CSc3nnnn3-c3ccccc3)nc2n1,AC50,[1],"6.31 µM [falling, partial curve]"
COCCn1c(=O)[nH]c2cc(C(=O)NCc3ccccc3Cl)ccc2c1=O,AC50,[1],"6.31 µM [falling, full curve]"
COc1ccccc1-c1cc(C(F)(F)F)nc(S(=O)(=O)CCCC(=O)N2CCOCC2)n1,AC50,[1],"1.26 µM [falling, full curve]"
O=C(Cn1c(=O)ccc2cc(S(=O)(=O)N3CCCC3)ccc21)NCc1ccc(Cl)cc1,AC50,[1],"0.1 µM [falling, full curve, poor fit]"
O=C(c1ccc(Cl)cc1)N1CCC(c2ccncc2)CC1,AC50,[1],"3.98 µM [rising, partial curve]"
Cn1nnnc1Sc1nc(-c2cccnc2)nc2ccccc12,AC50,[1],"5.01 µM [falling, full curve]"
CCN(CC)S(=O)(=O)c1ccc2nc(NC(=O)c3cccnc3)sc2c1,AC50,[1],"39.8 µM [falling, single point]"
Cc1ccc(NC(=O)CSc2nnc(COc3ccc(C#N)cc3)n2-c2ccccc2)cc1C,AC50,[1],"10 µM [falling, partial curve]"
CCC(CO)NC(=O)C(=O)Nc1c2c(nn1-c1ccc(F)cc1)CSC2 (configuration not stated),AC50,[2],"3.98 µM [rising, single point]"
same,AC50,[3],"7.94 µM [rising, partial curve]"
CC(=O)Nc1cccc(NC(=O)CN2C(=O)CCSc3ccccc32)c1,AC50,[1],"15.8 µM [falling, single point]"
Cc1cccc2sc(NC(=O)CN(C)S(=O)(=O)c3cccs3)nc12,AC50,[1],"12.6 µM [falling, partial curve]"
COc1ccc(OC)c(C(c2nnnn2C2CCCC2)N2CCc3ccccc3C2)c1 (configuration not stated),AC50,[1],"31.6 µM [falling, single point]"
Cc1nc2nc(NC(=O)c3ccccc3F)[nH]n2c(=O)c1Cl,AC50,[1],"12.6 µM [falling, partial curve]"
COc1ccc(C2C=C(c3cccc(OC)c3)Nc3c(C(=O)Nc4ccccc4)cnn32)cc1 (configuration not stated),AC50,[1],"15.8 µM [falling, partial curve]"
CCn1c2c(c(=O)n3ncc(C(=O)Nc4cc(Cl)ccc4C)c13)CN(Cc1ccc(OC)cc1)CC2,AC50,[1],"20 µM [falling, partial curve]"
O=C(NC1CCCCC1)c1ccc(S(=O)(=O)N2CCOCC2)cc1,AC50,[1],"39.8 µM [rising, single point]"

# Copied from the entries so far for reference:
structure (smiles),measurement,setting,value
O=C(c1ccc(Cl)cc1)N1CCC(c2ccncc2)CC1,AC50,[1],"3.98 µM [rising, partial curve]"
Cn1nnnc1Sc1nc(-c2cccnc2)nc2ccccc12,AC50,[1],"5.01 µM [falling, full curve]"
CCN(CC)S(=O)(=O)c1ccc2nc(NC(=O)c3cccnc3)sc2c1,AC50,[1],"39.8 µM [falling, single point]"
